Measurements published in PubChem BioAssay AID192 (DTP/NCI, 2004).
The list is a part of this screen's results and no random one: it gathers tests that were run many times, whatever their T/C, doses with no T/C, and many T/C values between a quarter and a half above the control. Further doses and runs are listed elsewhere. T/C gives the treated animals as a percentage of the vehicle group. Some entries give survivors of the animals treated and no T/C: the source files T/C as zero there, which appears to mark a toxic dose or a test without result, not a measured value. Some survivor counts are full or nearly so, which does not show that the dose was tolerated: the source hardly ever lists a survival T/C far under the control, and the zero likely stands for such cases as well. Counts of survivors are from the toxicity check (mostly the fifth day) where no day follows; animals may have died later. Schedule codes are those of the source, read here as Q, the interval in days (D) or hours (H), X, the number of doses. Some structures stand for samples that the source files as different forms (salt, stereo form or complex); doses refer to the form tested. Counts like (3×) give the number of equal values in this list. Some doses were run more than once; the results are listed from low to high. For survival time, the PubChem record calls one and a half times the control and up active, and a quarter to a half above the control has no call in these data; cut-offs in other NCI protocols can differ. Some T/C values are followed by the survivors on the day toxicity was checked, most often the fifth; without a count, all were alive then.

Test system: BDF1 mice, B16 melanoma ip, median survival T/C
Assay: NCI In Vivo Anticancer Drug Screen. Data for tumor model B16 Melanoma (intraperitoneal) in B6D2F1 (BDF1) mice
Conditions: T/C endpoint: median survival time, higher T/C = longer survival
Method in brief: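 The ratio T/C compares compound-treated mice with vehicle-treated controls, using survival or tumor size as the endpoint in a transplantable tumor model.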

COc1cc(NS(C)(=O)=O)ccc1Nc1c2ccccc2nc2ccccc12
T/C (dose: 0.25 mg/kg/injection, schedule: Q01DX009 (ip), vehicle: Klucel (hydroxypropylcellulose) (HPC)): 138 % of control
T/C (dose: 0.25 mg/kg/injection, schedule: Q01DX009 (ip), vehicle: other): 126 % of control (2×)
T/C (dose: 0.4 mg/kg/injection, schedule: Q01DX009 (ip), vehicle: saline): 140 % of control
T/C (dose: 0.5 mg/kg/injection, schedule: Q01DX009 (ip), vehicle: Klucel (hydroxypropylcellulose) (HPC)): 126 % of control
T/C (dose: 0.5 mg/kg/injection, schedule: Q01DX009 (ip), vehicle: clinical formulation): 146 % of control (2×)
T/C (dose: 0.5 mg/kg/injection, schedule: Q01DX009 (ip), vehicle: other): 128 (2×) and 129 % of control
T/C (dose: 0.6 mg/kg/injection, schedule: Q01DX009 (ip), vehicle: saline): 145 % of control
T/C (dose: 1.0 mg/kg/injection, schedule: Q01DX009 (ip), vehicle: other, evaluated on day 45): 161 % of control
T/C (dose: 1.0 mg/kg/injection, schedule: Q01DX009 (ip), vehicle: other, evaluated on day 60): 145 (2×) and 161 % of control
T/C (dose: 1.0 mg/kg/injection, schedule: Q01DX009 (ip), vehicle: other, evaluated on day 70): 126 % of control [9 of 10 alive]
T/C (dose: 1.0 mg/kg/injection, schedule: Q04DX003 (ip), vehicle: other, evaluated on day 8): 124 % of control
T/C (dose: 1.0 mg/kg/injection, schedule: Q04DX003 (ip), vehicle: other, evaluated on day 45): 160 % of control
T/C (dose: 1.0 mg/kg/injection, schedule: Q04DX003 (ip), vehicle: other, evaluated on day 60): 110 and 129 % of control
T/C (dose: 2.0 mg/kg/injection, schedule: Q01DX001 (ip), vehicle: lactic acid): 131 % of control
T/C (dose: 2.0 mg/kg/injection, schedule: Q01DX009 (ip), vehicle: other, evaluated on day 45): 158 % of control
T/C (dose: 2.0 mg/kg/injection, schedule: Q01DX009 (ip), vehicle: other, evaluated on day 60): 175 [9 of 10 alive] and 198 % of control
T/C (dose: 2.0 mg/kg/injection, schedule: Q01DX009 (ip), vehicle: other, evaluated on day 70): 131 and 142 % of control
T/C (dose: 2.0 mg/kg/injection, schedule: Q04DX003 (ip), vehicle: other, evaluated on day 8): 117 % of control
T/C (dose: 2.0 mg/kg/injection, schedule: Q04DX003 (ip), vehicle: other, evaluated on day 10): 112 % of control
T/C (dose: 2.0 mg/kg/injection, schedule: Q04DX003 (ip), vehicle: other, evaluated on day 45): 156 % of control
T/C (dose: 2.0 mg/kg/injection, schedule: Q04DX003 (ip), vehicle: other, evaluated on day 60): 131, 132, 137 % of control
T/C (dose: 3.0 mg/kg/injection, schedule: Q01DX009 (ip), vehicle: other): 136 % of control
T/C (dose: 4.0 mg/kg/injection, schedule: Q01DX001 (ip), vehicle: lactic acid): 134 % of control
T/C (dose: 4.0 mg/kg/injection, schedule: Q01DX009 (ip), vehicle: Klucel (hydroxypropylcellulose) (HPC)): 180, 199, 278, 282 % of control
survivor count (dose: 4.0 mg/kg/injection, schedule: Q01DX009 (ip), vehicle: clinical formulation): 10 of 10 (2×)
survivor count (dose: 4.0 mg/kg/injection, schedule: Q01DX009 (ip), vehicle: lactic acid): 10 of 10
T/C (dose: 4.0 mg/kg/injection, schedule: Q01DX009 (ip), vehicle: other, evaluated on day 60): 217 and 243 % of control
T/C (dose: 4.0 mg/kg/injection, schedule: Q01DX009 (ip), vehicle: other, evaluated on day 70): 137 % of control
survivor count (dose: 4.0 mg/kg/injection, schedule: Q01DX009 (ip), vehicle: other): 10 of 10 (3×)
survivor count (dose: 4.0 mg/kg/injection, schedule: Q03HX016 (oral), vehicle: lactic acid): 6 of 10
survivor count (dose: 4.0 mg/kg/injection, schedule: Q03HX024 (oral), vehicle: lactic acid): 0 of 10
T/C (dose: 4.0 mg/kg/injection, schedule: Q04DX003 (ip), vehicle: other, evaluated on day 8): 124 % of control
T/C (dose: 4.0 mg/kg/injection, schedule: Q04DX003 (ip), vehicle: other, evaluated on day 10): 122 % of control
T/C (dose: 4.0 mg/kg/injection, schedule: Q04DX003 (ip), vehicle: other, evaluated on day 45): 150 % of control
T/C (dose: 4.0 mg/kg/injection, schedule: Q04DX003 (ip), vehicle: other, evaluated on day 60): 157 and 159 % of control
T/C (dose: 4.0 mg/kg/injection, schedule: Q04DX003 (ip), vehicle: other, evaluated on day 70): 137 % of control
survivor count (dose: 5.0 mg/kg/injection, schedule: Q01DX009 (ip), vehicle: saline): 10 of 10
survivor count (dose: 6.0 mg/kg/injection, schedule: Q01DX009 (ip), vehicle: Klucel (hydroxypropylcellulose) (HPC)): 10 of 10
survivor count (dose: 8.0 mg/kg/injection, schedule: Q01DX009 (ip), vehicle: Klucel (hydroxypropylcellulose) (HPC)): 9 of 10 and 10 of 10 (2×)
survivor count (dose: 8.0 mg/kg/injection, schedule: Q01DX009 (ip), vehicle: clinical formulation): 10 of 10 (2×)
survivor count (dose: 8.0 mg/kg/injection, schedule: Q01DX009 (ip), vehicle: lactic acid): 10 of 10
survivor count (dose: 8.0 mg/kg/injection, schedule: Q01DX009 (ip), vehicle: other): 8 of 10 and 10 of 10 (5×)
survivor count (dose: 8.0 mg/kg/injection, schedule: Q01DX009 (oral), vehicle: lactic acid): 9 of 10
survivor count (dose: 8.0 mg/kg/injection, schedule: Q03HX016 (oral), vehicle: lactic acid): 1 of 10
survivor count (dose: 8.0 mg/kg/injection, schedule: Q03HX024 (oral), vehicle: lactic acid): 0 of 10
T/C (dose: 8.0 mg/kg/injection, schedule: Q04DX003 (ip), vehicle: other, evaluated on day 8): 130 % of control
T/C (dose: 8.0 mg/kg/injection, schedule: Q04DX003 (ip), vehicle: other, evaluated on day 10): 129 % of control
T/C (dose: 8.0 mg/kg/injection, schedule: Q04DX003 (ip), vehicle: other, evaluated on day 45): 89 % of control
T/C (dose: 8.0 mg/kg/injection, schedule: Q04DX003 (ip), vehicle: other, evaluated on day 60): 186 and 188 % of control
T/C (dose: 8.0 mg/kg/injection, schedule: Q04DX003 (ip), vehicle: other, evaluated on day 70): 135 [9 of 10 alive] and 149 % of control
survivor count (dose: 10.0 mg/kg/injection, schedule: Q01DX009 (ip), vehicle: saline): 10 of 10
survivor count (dose: 12.0 mg/kg/injection, schedule: Q01DX009 (ip), vehicle: Klucel (hydroxypropylcellulose) (HPC)): 9 of 10 and 10 of 10
T/C (dose: 12.5 mg/kg/injection, schedule: Q01DX001 (ip), vehicle: saline): 147 % of control
survivor count (dose: 12.5 mg/kg/injection, schedule: Q01DX009 (ip), vehicle: saline with Tween-80): 6 of 6
survivor count (dose: 13.0 mg/kg/injection, schedule: Q01DX005 (iv), vehicle: lactic acid): 10 of 10
survivor count (dose: 16.0 mg/kg/injection, schedule: Q01DX001 (ip), vehicle: lactic acid): 7 of 10
survivor count (dose: 16.0 mg/kg/injection, schedule: Q01DX009 (ip), vehicle: clinical formulation): 8 of 10 (2×)
survivor count (dose: 16.0 mg/kg/injection, schedule: Q01DX009 (ip), vehicle: other): 8 of 10 and 10 of 10
survivor count (dose: 16.0 mg/kg/injection, schedule: Q01DX009 (oral), vehicle: lactic acid): 8 of 10
survivor count (dose: 16.0 mg/kg/injection, schedule: Q01DX009 (oral), vehicle: other): 8 of 10 and 10 of 10
survivor count (dose: 16.0 mg/kg/injection, schedule: Q03HX016 (oral), vehicle: lactic acid): 3 of 10
T/C (dose: 16.0 mg/kg/injection, schedule: Q04DX003 (ip), vehicle: other, evaluated on day 8): 142 % of control
T/C (dose: 16.0 mg/kg/injection, schedule: Q04DX003 (ip), vehicle: other, evaluated on day 10): 127 % of control [8 of 9 alive]
T/C (dose: 16.0 mg/kg/injection, schedule: Q04DX003 (ip), vehicle: other, evaluated on day 60): 188 % of control
T/C (dose: 16.0 mg/kg/injection, schedule: Q04DX003 (ip), vehicle: other, evaluated on day 70): 166 % of control
survivor count (dose: 16.0 mg/kg/injection, schedule: Q04DX003 (ip), vehicle: other): 4 of 10 and 7 of 10
T/C (dose: 16.0 mg/kg/injection, schedule: Q04DX003 (oral), vehicle: lactic acid): 131 % of control
survivor count (dose: 17.0 mg/kg/injection, schedule: Q01DX009 (ip), vehicle: Klucel (hydroxypropylcellulose) (HPC)): 10 of 10
survivor count (dose: 25.0 mg/kg/injection, schedule: Q01DX009 (ip), vehicle: Klucel (hydroxypropylcellulose) (HPC)): 10 of 10
survivor count (dose: 25.0 mg/kg/injection, schedule: Q01DX009 (ip), vehicle: saline with Tween-80): 6 of 6
T/C (dose: 25.0 mg/kg/injection, schedule: Q01DX009 (ip), vehicle: saline): 149 % of control
survivor count (dose: 26.0 mg/kg/injection, schedule: Q01DX005 (iv), vehicle: lactic acid): 3 of 10
survivor count (dose: 30.0 mg/kg/injection, schedule: Q04DX003 (ip), vehicle: clinical formulation): 5 of 10 (2×)
survivor count (dose: 32.0 mg/kg/injection, schedule: Q01DX001 (ip), vehicle: lactic acid): 0 of 10
survivor count (dose: 32.0 mg/kg/injection, schedule: Q03HX016 (oral), vehicle: lactic acid): 1 of 10
survivor count (dose: 32.0 mg/kg/injection, schedule: Q04DX003 (ip), vehicle: other): 7 of 10 (2×)
T/C (dose: 32.0 mg/kg/injection, schedule: Q04DX003 (oral), vehicle: lactic acid): 132 % of control [9 of 10 alive]
survivor count (dose: 37.0 mg/kg/injection, schedule: Q01DX009 (ip), vehicle: Klucel (hydroxypropylcellulose) (HPC)): 9 of 10
survivor count (dose: 50.0 mg/kg/injection, schedule: Q01DX009 (ip), vehicle: saline with Tween-80): 4 of 6
survivor count (dose: 50.0 mg/kg/injection, schedule: Q01DX009 (ip), vehicle: saline): 10 of 10
survivor count (dose: 50.0 mg/kg/injection, schedule: Q04DX003 (ip), vehicle: Klucel (hydroxypropylcellulose) (HPC)): 10 of 10
survivor count (dose: 64.0 mg/kg/injection, schedule: Q01DX001 (oral), vehicle: lactic acid): 7 of 10
survivor count (dose: 64.0 mg/kg/injection, schedule: Q04DX003 (ip), vehicle: other): 1 of 10 and 2 of 10
survivor count (dose: 64.0 mg/kg/injection, schedule: Q04DX003 (oral), vehicle: lactic acid): 7 of 10
survivor count (dose: 64.0 mg/kg/injection, schedule: Q04DX003 (oral), vehicle: other): 10 of 10
survivor count (dose: 64.0 mg/kg/injection, schedule: Q08DX002 (oral), vehicle: lactic acid): 9 of 10
survivor count (dose: 100.0 mg/kg/injection, schedule: Q01DX001 (ip), vehicle: saline): 4 of 10
survivor count (dose: 100.0 mg/kg/injection, schedule: Q01DX009 (ip), vehicle: saline with Tween-80): 0 of 6
survivor count (dose: 100.0 mg/kg/injection, schedule: Q04DX003 (ip), vehicle: Klucel (hydroxypropylcellulose) (HPC)): 10 of 10
survivor count (dose: 128.0 mg/kg/injection, schedule: Q01DX001 (oral), vehicle: lactic acid): 3 of 10
survivor count (dose: 128.0 mg/kg/injection, schedule: Q04DX003 (ip), vehicle: other): 0 of 10 (2×)
survivor count (dose: 128.0 mg/kg/injection, schedule: Q04DX003 (oral), vehicle: other): 9 of 10 and 10 of 10
survivor count (dose: 128.0 mg/kg/injection, schedule: Q08DX002 (oral), vehicle: lactic acid): 2 of 10
survivor count (dose: 200.0 mg/kg/injection, schedule: Q01DX001 (ip), vehicle: saline sonified): 6 of 6
survivor count (dose: 200.0 mg/kg/injection, schedule: Q04DX003 (ip), vehicle: Klucel (hydroxypropylcellulose) (HPC)): 10 of 10
survivor count (dose: 400.0 mg/kg/injection, schedule: Q04DX003 (ip), vehicle: Klucel (hydroxypropylcellulose) (HPC)): 10 of 10
